These are yes or no findings as the source states them, for the method shown. Binding seen in cells or lysates may run through a third protein. Some binding calls cover weakened binding; strength is not graded here. Sequences can lack the tags named with a protein.
T1: Flag-tagged full length mouse IRS4 (insulin receptor substrate 4) (mouse) (UniProt Q9Z0Y7)
T1 sequence: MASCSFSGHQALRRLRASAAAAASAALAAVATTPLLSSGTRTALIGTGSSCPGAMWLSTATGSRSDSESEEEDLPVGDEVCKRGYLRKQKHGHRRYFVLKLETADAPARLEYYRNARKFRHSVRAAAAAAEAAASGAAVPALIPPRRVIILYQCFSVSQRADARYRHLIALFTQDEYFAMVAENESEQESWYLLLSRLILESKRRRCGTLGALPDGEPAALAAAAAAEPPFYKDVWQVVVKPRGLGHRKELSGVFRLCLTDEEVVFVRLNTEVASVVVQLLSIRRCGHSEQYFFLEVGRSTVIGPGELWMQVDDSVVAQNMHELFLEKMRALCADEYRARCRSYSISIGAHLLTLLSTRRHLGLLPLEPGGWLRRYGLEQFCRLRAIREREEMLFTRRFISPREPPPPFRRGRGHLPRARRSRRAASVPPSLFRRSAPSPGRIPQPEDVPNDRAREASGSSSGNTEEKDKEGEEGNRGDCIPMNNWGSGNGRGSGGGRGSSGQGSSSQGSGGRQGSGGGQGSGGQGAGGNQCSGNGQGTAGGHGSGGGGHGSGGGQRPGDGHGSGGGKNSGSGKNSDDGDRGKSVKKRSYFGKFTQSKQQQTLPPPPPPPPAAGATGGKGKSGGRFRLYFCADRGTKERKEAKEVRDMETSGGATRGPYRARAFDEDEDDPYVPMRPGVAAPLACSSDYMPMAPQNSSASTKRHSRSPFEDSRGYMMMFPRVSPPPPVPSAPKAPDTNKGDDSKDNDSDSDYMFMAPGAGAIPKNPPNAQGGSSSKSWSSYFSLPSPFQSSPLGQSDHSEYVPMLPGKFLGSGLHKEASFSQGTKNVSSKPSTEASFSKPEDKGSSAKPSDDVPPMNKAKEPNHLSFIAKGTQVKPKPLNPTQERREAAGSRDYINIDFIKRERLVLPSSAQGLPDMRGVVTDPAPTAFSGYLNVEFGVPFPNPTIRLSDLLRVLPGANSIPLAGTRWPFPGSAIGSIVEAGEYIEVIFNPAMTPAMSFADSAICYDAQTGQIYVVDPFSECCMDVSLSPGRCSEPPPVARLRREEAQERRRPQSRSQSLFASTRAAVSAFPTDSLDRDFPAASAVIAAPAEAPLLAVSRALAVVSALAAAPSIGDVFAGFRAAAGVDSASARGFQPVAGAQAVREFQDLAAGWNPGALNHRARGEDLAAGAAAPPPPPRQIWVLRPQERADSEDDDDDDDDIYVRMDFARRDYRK

T2: Myc-tagged full length mouse Asb-4 (ankyrin repeat and SOCS box containing protein 4) (mouse) (UniProt Q9WV71)
T2 sequence: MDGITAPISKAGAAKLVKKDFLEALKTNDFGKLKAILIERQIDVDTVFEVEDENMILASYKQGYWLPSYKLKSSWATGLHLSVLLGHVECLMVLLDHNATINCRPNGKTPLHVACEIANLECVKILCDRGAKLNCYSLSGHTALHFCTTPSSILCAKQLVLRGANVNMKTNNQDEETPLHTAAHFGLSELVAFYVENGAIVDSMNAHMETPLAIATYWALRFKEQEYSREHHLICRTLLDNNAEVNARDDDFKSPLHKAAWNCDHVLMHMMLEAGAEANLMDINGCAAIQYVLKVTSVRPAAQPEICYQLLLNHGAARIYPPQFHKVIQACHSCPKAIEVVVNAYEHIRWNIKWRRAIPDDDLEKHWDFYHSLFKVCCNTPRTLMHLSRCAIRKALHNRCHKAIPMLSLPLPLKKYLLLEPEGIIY

B1: Myc-tagged full length mouse Asb-4 (ankyrin repeat and SOCS box containing protein 4) (protein, UniProt Q9WV71 1-426)
chain: T2 sequence
B2: Flag-tagged full length mouse IRS4 (insulin receptor substrate 4) (protein, UniProt Q9Z0Y7 1-1216)
chain: T1 sequence

Experiments:
[1] = biological target: T1, Flag-tagged full length mouse IRS4 (insulin receptor substrate 4) (mouse); assay: co-IP; HEK293 cells co-transfected with Myc-Asb-4 and Flag-IRS4; lysis buffer 150 mM NaCl, 20 mM Na2HPO4, pH 7.4, 1% Triton X-100; precipitated with anti-Flag-M2 or anti-Myc antibody conjugated agarose, blotted with anti-Myc or anti-Flag
[2] = biological target: T2, Myc-tagged full length mouse Asb-4 (ankyrin repeat and SOCS box containing protein 4) (mouse); assay: as above

| Binder | binding [1] | binding [2] |
| --- | --- | --- |
| B1 | binds |  |
| B2 |  | binds |
